# Measurements as given in PubChem BioAssay AID2322 (Broad Institute, 2010).
# Amino acid sequences for entries named in this document (tags omitted). A change or cut given only in a name is not applied to a line headed by its entry.
# UniProt Q9BYT3: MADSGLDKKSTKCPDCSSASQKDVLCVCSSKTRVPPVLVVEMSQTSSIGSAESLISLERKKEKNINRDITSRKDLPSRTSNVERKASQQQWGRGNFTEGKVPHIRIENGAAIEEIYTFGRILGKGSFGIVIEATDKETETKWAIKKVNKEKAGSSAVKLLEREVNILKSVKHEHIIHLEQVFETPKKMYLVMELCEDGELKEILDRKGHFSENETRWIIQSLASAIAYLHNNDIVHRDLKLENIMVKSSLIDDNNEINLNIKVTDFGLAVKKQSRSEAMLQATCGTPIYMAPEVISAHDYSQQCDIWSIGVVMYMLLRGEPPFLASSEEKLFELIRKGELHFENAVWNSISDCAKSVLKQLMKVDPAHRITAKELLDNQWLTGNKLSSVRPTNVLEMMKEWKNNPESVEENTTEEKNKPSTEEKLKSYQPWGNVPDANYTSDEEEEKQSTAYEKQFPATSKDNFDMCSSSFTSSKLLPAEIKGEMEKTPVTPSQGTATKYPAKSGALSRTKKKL
# About 120 (0.44%) of roughly 27,000 compounds were called active. The shares of active, inactive and inconclusive entries below differ from those in the screen. Cut-off read from the data, not from the text of the source: active = inhibition above about 20%; inconclusive = no clear call, values can overlap the other calls; inactive = below that.
# Target: Serine/threonine-protein kinase 33 (Homo sapiens) (UniProt Q9BYT3)
# Test: STK33 kinase inhibitors, primary screen, biochemical, luminescence, ADP-Glo, MBP substrate (AID 2322)
# Conditions: at 12.5 µM, hits give high values
row,Compound,inhibition
1,C=C(C)[C@@]12O[C@@H]1[C@@]1(C)C(=C[C@H]2O)CC[C@@H](O)[C@@H]1C,inactive: -0.689%
2,C[C@H]1CCCC(=O)CCC/C=C/c2cc(O)cc(O)c2C(=O)O1,inconclusive: 18.6%
3,O=C1c2ccccc2-c2cccc3cccc1c23,active: 75.5%
4,C=C1C(=O)O[C@@H]2[C@H]3C(=C)[C@@H](O)C[C@H]3C(=C)C[C@@H](O)[C@@H]12,inconclusive: 20%
5,CCn1cnc2c(Nc3cccc(Cl)c3)nc(N[C@@H]3CCCC[C@@H]3N)nc21,active: 62.5%
